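Growth of Mycobacterium tuberculosis over 3 days (7H9 medium with glucose and tyloxapol); the read-out is not stated. Compounds at 500 µM. Direction is inferred from retests: higher values go with more growth inhibition. Of about 18,000 compounds tested this way, about 1,400 (7.9%) reached 50% or more in at least one test.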

Results are given as percent effect.
The controls that fix the scale are not given in the record; negative values are as filed.
The compounds are a random part of those screened.

| Compound | effect |
|---|---|
| `C[C@@H]1CN(C(=O)CCc2cnn(C)c2)C[C@]1(C)O` | 8.695% |
| `Cc1cc(C)c(CNC(=O)Cc2cccs2)c(=O)[nH]1` | 27.21% |
| `CN(C)S(=O)(=O)NCCN` | 9.668% |
| `COC(=O)c1cccc(CNCCC(=O)N(C)C)c1` | 4.377% |
| `NC(=O)CSc1nnc(-c2cc(Br)ccc2O)[nH]1` | 78.95% |
| `COC(=O)c1cc(C(F)(F)F)cc(S(N)(=O)=O)c1` | 18.5% |
| `CN(Cc1ccccc1Br)C(=O)c1nccnc1N` | 52.93% |
| `N#Cc1cccc(NC(=O)NCCn2ccnc2)c1` | 14.43% |
| `Cn1ccnc1C1NCC1(C)C` (stereo not shown) | 3.113% |
| `C[C@@H]1CN(C(=O)CN(C)Cc2ccccc2)C[C@]1(C)O` | 7.669% |
| `NS(=O)(=O)N1CCN(CC(=O)N2CCCCC2)CC1` | -6.92% |
| `COc1ccc(Cl)cc1Cn1cnnc1[S+](C)[O-]` (stereo not shown) | 14.55% |
| `Cc1nc(NC(=O)c2ccnn2C)sc1C` | 32.92% |
| `CCN1CCN(CC(=O)NC(C)Cn2cncn2)CC1` (stereo not shown) | -16.32% |
| `COCC(=O)N(C)Cc1cc(Br)cs1` | 39.7% |
| `CC[C@@H](O)CN1CCC(OC2CCOC2)CC1` (stereo partly shown) | -4.255% |
| `CS(=O)(=O)CC(=O)c1ccccc1F` | 7.807% |
| `CNC1(C(=O)OC)CCCCC1` | 5.35% |
| `OCCC1COCCN1` (stereo not shown) | 0.4957% |
| `COc1cc(CN)cc(C)n1` | 4.663% |
| `CC(OC(=O)c1ccccc1NCCO)C(N)=O` (stereo not shown) | 15.82% |
| `CCn1ncnc1CN1CCC(O)(CO)CC1` | -8.669% |
| `Cn1ncc(NC(=O)CCn2cc(Br)cn2)c1C(N)=O` | 16.14% |
| `Cc1ncn(CC(=O)N2CC[C@](C)(O)[C@H](C)C2)c1C` | 6.28% |
| `COc1cccc(NC(CN)c2ccccc2)c1` (stereo not shown) | 69.75% |
| `Cn1cc(S(=O)(=O)NCC2(N)CCCCC2)cn1` | -0.8875% |
| `CC(=O)c1cccc(NC(=O)c2cn(C)nc2C)c1` | 42.16% |
| `Cc1ccnc(NC(=O)N(C)Cc2ccncc2)c1` | 15.32% |
| `CN(C)S(=O)(=O)N1CCCC1c1ccsc1` (stereo not shown) | 51.95% |
| `NCC1CN(Cc2c(Cl)cncc2Cl)CCO1` (stereo not shown) | 44.48% |
| `CCc1nsc(NC2CCN(C(C)=O)C2)n1` (stereo not shown) | 19.03% |
| `C=C(C)CN(CC)C(=O)CN1CCC(O)CC1` | 9.96% |
| `COCCNC1CC1` | -1.558% |
| `CC(C)(CNC(=O)NCCc1cccc(F)c1)C(N)=O` | 25.91% |
| `CN(C)S(=O)(=O)c1ccc(I)c(C(=O)N2CCC2)c1` | 20.38% |
| `Cc1ccc(C(C)C)c(OCC(O)CNCCO)c1` (stereo not shown) | 82.09% |
| `CC(C1CCNCC1)N1CCN(C)CC1` (stereo not shown) | 4.231% |
| `CC(C)C(N)c1ncc[nH]1` (stereo not shown) | 6.549% |
| `Cc1noc(C(C)N2CCn3ccnc3C2)n1` (stereo not shown) | 4.218% |
| `NC(=O)c1ccc(NC(=O)c2cc(Cl)ccn2)cc1` | -1.074% |
| `Cc1ccc(NC(=O)CCSCC(N)=O)c(C)c1` | 27.7% |
| `c1cc2nnnn2nc1N1CCCCC1` | -1.792% |
| `CC(C)OC1CCC(N)CC1` (stereo not shown) | -16.08% |
| `N[C@@H]1CCO[C@@H](c2cccnc2)C1` | 7.506% |
| `Cc1nc(CN2CC(S(=O)(=O)NC3CCCC3)C2)no1` | 11.13% |
| `Cc1cccc(CN(CC(N)=O)Cc2ccccn2)c1` | 59.32% |
| `Cc1nn(C)c2nc(NCCC(=O)N3CCCC3)sc12` | 24.15% |
| `NCCCN1CCOC1=O` | -3.624% |
| `Cc1nnc(CCNC(=O)C(O)CC(C)C)s1` (stereo not shown) | 4.804% |
| `Cc1n[nH]c(C)c1NC(=O)OC(C)(C)C` | -1.79% |
| `CCS(=O)(=O)N1CCC(C(=O)NC(C)(C)C)CC1` | 4.716% |
| `O=C(NCc1ccncc1)OCC(F)(F)F` | 49.2% |
| `Cc1nnc(CCNC(=O)[C@@H](N)C(C)(C)C)s1` | -7.612% |
| `Cc1csc(NC(=O)CNC(=O)c2cccs2)n1` | 62.14% |
| `CCN(C(=O)NCc1nnc(C)n1C1CC1)C(C)C` | 5.254% |
| `Cc1ccccc1CSCC(=O)NCC1(O)CCNC1` (stereo not shown) | 44.78% |
| `O=C(CC1CCCC1)Nc1ccc2c(c1)NC(=O)CO2` | -14.24% |
| `CN(C)S(=O)(=O)c1ccc2c(c1)NCC2` | 23.55% |
| `NC(=O)C1Cc2ccccc2CN1C(=O)C1CCC1` (stereo not shown) | 25.31% |
| `CN1CCN(C2CNC2)CC1` | 3.989% |
| `CS(=O)(=O)N(c1ccc(OCCN)cc1)S(C)(=O)=O` | 0.5517% |
| `CN(CC(=O)N1CCCC1)Cc1ccccc1` | 26.08% |
| `C[C@H](O)c1ccc(-n2cccn2)c(F)c1` | 32.06% |
| `CCN(CC)S(=O)(=O)c1cccc(NCC(=O)OC)c1` | 18.33% |
| `CN(CC(C)(C)O)C(=O)NCC[S+]([O-])c1ccccc1` (stereo not shown) | -0.000853% |
| `O=S(=O)(CCNC1CCCSC1)NCC1CCC1` (stereo not shown) | 49.79% |
| `Cc1noc(CSCC(=O)NCc2ccccc2F)n1` | 38.74% |
| `CC(O)c1ncc[nH]1` (stereo not shown) | 4.097% |
| `COc1ccc2c(c1)OCC(C(=O)N(C)CCC#N)C2` (stereo not shown) | 27.24% |
| `Cc1nsc(N2CCN(c3ccccn3)CC2)n1` | 29.98% |
| `CN(C)C1CCCN(C(=O)CCCc2cn[nH]c2)CC1` (stereo not shown) | 9.187% |
| `COC(=O)c1cccc(S(=O)(=O)NC(C)C(N)=O)c1` (stereo not shown) | 7.746% |
| `Cc1cc(NC(=O)NC2CCN(S(C)(=O)=O)CC2)no1` | -10.03% |
| `NC(=O)NC(=O)CSc1ncccn1` | -3.565% |

For reference, 4 entries once more:

Compound	effect
CCc1nsc(NC2CCN(C(C)=O)C2)n1 (stereo not shown)	19.03%
Cc1cc(NC(=O)NC2CCN(S(C)(=O)=O)CC2)no1	-10.03%
O=S(=O)(CCNC1CCCSC1)NCC1CCC1 (stereo not shown)	49.79%
CC(C1CCNCC1)N1CCN(C)CC1 (stereo not shown)	4.231%

Measurements from “University of Dundee, Small-Polar-MMV Screening Library” (2021), ChEMBL document CHEMBL3988442.